{"source": "the supplement of paper PMC9135407", "system": "primary human hepatic stellate cells (donor 1)", "test": "percent Bodipy-positive cells; higher = more lipid droplet accumulation", "conditions": "48 h", "protocol": "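Primary lipid accumulation screen in primary human hepatic stellate cell myofibroblasts (donor 1, passage 8) in 384-well plates. 100 nL of library compound was pin-transferred into 30 µL medium in duplicate, and cells were treated for 48 h. The 'Scaled' score combines distance from plate baseline, toxicity and reproducibility penalties, and is normalised to nortriptyline (positive) and DMSO (negative) controls on each plate. A hit is defined as scaled >0.85 or among the top 3 wells per plate.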", "key": {"[1]": {"conditions": "library stock concentration: 10 mM"}, "[2]": {"conditions": "library stock concentration: 80 uM"}, "[3]": {"conditions": "library stock concentration: 400 uM"}, "[4]": {"conditions": "library stock concentration: 2 mM"}, "[5]": {"conditions": "library stock concentration: 3.33 mM"}, "[6]": {"conditions": "library stock concentration: 1 mM"}}, "note": "Several values for one entry are separate records, joined by “and”; a condition that tells them apart may be missing. Identical values can stand only once. Counter-ions that a name gives are not always drawn. ± gives the standard deviation of the averaged measurements. Some of the results follow. Part of the spread comes from offsets between plates or batches.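 Assay uses culture-activated primary human stellate myofibroblasts; lipid droplet recovery indicates inactivation. Measured: proportion of Hoechst-counted cells over a plate-specific Bodipy cutoff, duplicate wells, DMSO and nortriptyline as per-plate negative and positive controls. A hit scores, control-normalized, above the plate's top-tenth-percentile nortriptyline wells or ranks among its three best wells. Final well concentrations not reported.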", "data": [{"compound": "CC(=O)N1CCCC1C(=O)O", "note": "(configuration not stated) [N-acetylproline]", "values": [{"measurement": "percent Bodipy-positive cells", "setting": "[1]", "result": "38.3 ± 13", "unit": "%"}]}, {"compound": "Oc1ccc(/C=C/c2cc(O)cc(O)c2)cc1", "note": "[Resveratrol]", "values": [{"measurement": "percent Bodipy-positive cells", "result": "45.1 ± 9.5", "unit": "%"}, {"measurement": "percent Bodipy-positive cells", "setting": "[2]", "result": "46.9 ± 10", "unit": "%"}, {"measurement": "percent Bodipy-positive cells", "setting": "[3]", "result": "46.2 ± 8.4", "unit": "%"}, {"measurement": "percent Bodipy-positive cells", "setting": "[4]", "result": "48.8 ± 7.8", "unit": "%"}, {"measurement": "percent Bodipy-positive cells", "setting": "[5]", "result": "18.1 ± 5.5", "unit": "%"}, {"measurement": "percent Bodipy-positive cells", "setting": "library stock concentration: 21.9 mM", "result": "9.55 ± 0.18", "unit": "%"}]}, {"compound": "Oc1ccc(/C=C/c2cc(O)cc(O)c2)cc1", "note": "[trans-Resveratrol]", "values": [{"measurement": "percent Bodipy-positive cells", "setting": "[6]", "result": "13.9 ± 3.9", "unit": "%"}]}, {"compound": "Oc1ccc(/C=C/c2cc(O)cc(O)c2)cc1", "values": [{"measurement": "percent Bodipy-positive cells", "setting": "[1]", "result": "15.1 ± 7.2", "unit": "%"}]}, {"compound": "CCCCC[C@](C)(O)/C=C/[C@@H]1[C@@H](C/C=C\\CCCC(=O)OC)[C@@H](O)C[C@H]1O", "note": "[15(S)-15-methyl Prostaglandin F2.alpha. methyl ester]", "values": [{"measurement": "percent Bodipy-positive cells", "setting": "[6]", "result": "14.3 ± 6.7", "unit": "%"}]}, {"compound": "COc1ccc(C2=NC(c3ccc(Cl)cc3)C(c3ccc(Cl)cc3)N2C(=O)N2CCNC(=O)C2)c(OC(C)C)c1", "note": "(configuration not stated) [Nutlin-3b]", "values": [{"measurement": "percent Bodipy-positive cells", "setting": "[5]", "result": "42.1 ± 1.6", "unit": "%"}, {"measurement": "percent Bodipy-positive cells", "setting": "[1]", "result": "61.4 ± 13", "unit": "%"}]}, {"compound": "COc1ccc(C2=NC(c3ccc(Cl)cc3)C(c3ccc(Cl)cc3)N2C(=O)N2CCNC(=O)C2)c(OC(C)C)c1", "note": "(configuration not stated) [Nutlin-3a]", "values": [{"measurement": "percent Bodipy-positive cells", "setting": "[5]", "result": "60.5 ± 4.4", "unit": "%"}]}, {"compound": "COc1ccc(/C=C/C(=O)Nc2ccccc2C(=O)O)cc1OC", "note": "[Tranilast]", "values": [{"measurement": "percent Bodipy-positive cells", "setting": "[6]", "result": "17.6 ± 13", "unit": "%"}, {"measurement": "percent Bodipy-positive cells", "setting": "[5]", "result": "7.18 ± 3.1", "unit": "%"}, {"measurement": "percent Bodipy-positive cells", "setting": "library stock concentration: 6.1 mM", "result": "8.4% and 2.12%"}, {"measurement": "percent Bodipy-positive cells", "setting": "[1]", "result": "17% and 14.5% and 9.72%"}]}, {"compound": "COc1ccc(/C=C/C(=O)Nc2ccccc2C(=O)O)cc1OC", "values": [{"measurement": "percent Bodipy-positive cells", "setting": "[1]", "result": "7.3 ± 4.3", "unit": "%"}]}, {"compound": "CCN(CC)CCNC(=O)c1c(C)[nH]c(/C=C2\\C(=O)Nc3ccc(F)cc32)c1C", "note": "[Sunitinib Malate]", "values": [{"measurement": "percent Bodipy-positive cells", "setting": "[5]", "result": 100, "unit": "%"}, {"measurement": "percent Bodipy-positive cells", "setting": "[1]", "result": "98.8 ± 1.8", "unit": "%"}]}, {"compound": "CCN(CC)CCNC(=O)c1c(C)[nH]c(/C=C2\\C(=O)Nc3ccc(F)cc32)c1C", "note": "[Sunitinib malate]", "values": [{"measurement": "percent Bodipy-positive cells", "setting": "[2]", "result": "25.2 ± 12", "unit": "%"}, {"measurement": "percent Bodipy-positive cells", "setting": "[3]", "result": "25.8 ± 14", "unit": "%"}, {"measurement": "percent Bodipy-positive cells", "setting": "[1]", "result": 100, "unit": "%"}]}, {"compound": "CCN(CC)CCNC(=O)c1c(C)[nH]c(/C=C2\\C(=O)Nc3ccc(F)cc32)c1C", "values": [{"measurement": "percent Bodipy-positive cells", "setting": "[3]", "result": "44.7 ± 15", "unit": "%"}, {"measurement": "percent Bodipy-positive cells", "setting": "[1]", "result": 100, "unit": "%"}]}, {"compound": "COc1cc(C(=O)NC2CCN(C)CC2)ccc1Nc1ncc2c(n1)N(C1CCCC1)CCC(=O)N2C(C)C", "values": [{"measurement": "percent Bodipy-positive cells", "setting": "[2]", "result": "10.8 ± 3.6", "unit": "%"}, {"measurement": "percent Bodipy-positive cells", "setting": "[3]", "result": "22.5 ± 3", "unit": "%"}, {"measurement": "percent Bodipy-positive cells", "setting": "[4]", "result": "35.6 ± 6.2", "unit": "%"}]}, {"compound": "CCCCC[C@H](O)/C=C/[C@H]1[C@H](O)CC(=O)[C@@H]1CCCCCCC(=O)NCCO", "note": "[Prostaglandin E1 Ethanolamide]", "values": [{"measurement": "percent Bodipy-positive cells", "setting": "[6]", "result": "14 ± 2.6", "unit": "%"}]}, {"compound": "COc1cc(C[C@@H](CO)[C@H](CO)Cc2ccc(O)c(OC)c2)ccc1O", "values": [{"measurement": "percent Bodipy-positive cells", "setting": "[1]", "result": "13.2 ± 3.1", "unit": "%"}]}, {"compound": "CN(C)C(=O)C(CCN1CCC(O)(c2ccc(Cl)cc2)CC1)(c1ccccc1)c1ccccc1", "note": "[Loperamide hydrochloride]", "values": [{"measurement": "percent Bodipy-positive cells", "result": "64.1 ± 2.6", "unit": "%"}, {"measurement": "percent Bodipy-positive cells", "setting": "[1]", "result": "99.4% and 80.8%"}]}, {"compound": "CN(C)C(=O)C(CCN1CCC(O)(c2ccc(Cl)cc2)CC1)(c1ccccc1)c1ccccc1", "note": "[Loperamide HCl]", "values": [{"measurement": "percent Bodipy-positive cells", "setting": "[5]", "result": "43.6 ± 3", "unit": "%"}, {"measurement": "percent Bodipy-positive cells", "setting": "[1]", "result": "98.55 ± 0.61", "unit": "%"}]}, {"compound": "Cc1ccccc1C(=O)Nc1ccc(C(=O)N2CCCC(O)c3cc(Cl)ccc32)c(C)c1", "note": "(configuration not stated) [Tolvaptan]", "values": [{"measurement": "percent Bodipy-positive cells", "setting": "[5]", "result": "8.34 ± 5.3", "unit": "%"}, {"measurement": "percent Bodipy-positive cells", "setting": "[1]", "result": "10.7 ± 0.95", "unit": "%"}]}, {"compound": "COc1ccccc1N1CCN(CCN2C(=O)c3ccccc3C(C)(C)C2=O)CC1", "note": "[ARC 239 dihydrochloride]", "values": [{"measurement": "percent Bodipy-positive cells", "setting": "[1]", "result": "12.253 ± 0.012", "unit": "%"}]}, {"compound": "Clc1ccc(C2(c3ccc(-c4cn[nH]c4)cc3)CCNCC2)cc1", "values": [{"measurement": "percent Bodipy-positive cells", "setting": "[4]", "result": "85.4 ± 4.4", "unit": "%"}, {"measurement": "percent Bodipy-positive cells", "setting": "[1]", "result": 100, "unit": "%"}]}, {"compound": "Nc1nc2[nH]cnc2c(=S)[nH]1", "note": "[Thioguanine]", "values": [{"measurement": "percent Bodipy-positive cells", "setting": "[1]", "result": "21.6 ± 5.9", "unit": "%"}, {"measurement": "percent Bodipy-positive cells", "setting": "library stock concentration: 12 mM", "result": "8.62 ± 0.67", "unit": "%"}]}, {"compound": "CC(C)c1cc2c(c(O)c1O)[C@@]13CCCC(C)(C)[C@@H]1C[C@@H]2OC3=O", "note": "[Carnosol]", "values": [{"measurement": "percent Bodipy-positive cells", "setting": "[6]", "result": "11.8 ± 10", "unit": "%"}]}, {"compound": "O=C1c2c(O)cccc2C([C@@H]2O[C@H](CO)[C@@H](O)[C@H](O)[C@H]2O)c2cc(CO)cc(O)c21", "note": "(some centres not stated) [Aloin]", "values": [{"measurement": "percent Bodipy-positive cells", "setting": "[5]", "result": "8.22 ± 0.75", "unit": "%"}]}, {"compound": "NC(=S)NCCC[C@H](N)C(=O)O", "note": "[L-Thiocitrulline (hydrochloride)]", "values": [{"measurement": "percent Bodipy-positive cells", "setting": "[6]", "result": "12.4 ± 0.54", "unit": "%"}]}, {"compound": "NC(=S)NCCC[C@H](N)C(=O)O", "note": "[Thiocitrulline [L-Thiocitrulline]]", "values": [{"measurement": "percent Bodipy-positive cells", "setting": "library stock concentration: 26.1 mM", "result": "7.14 ± 1.8", "unit": "%"}]}, {"compound": "O=C(Nc1cccc(C(F)(F)F)c1)Nc1cc(S(=O)(=O)NC2CC2)ccc1-c1ccsc1", "values": [{"measurement": "percent Bodipy-positive cells", "setting": "[5]", "result": "33.8 ± 1.1", "unit": "%"}, {"measurement": "percent Bodipy-positive cells", "setting": "[1]", "result": "71.3 ± 0.52", "unit": "%"}]}, {"compound": "CC(C(=O)O)c1ccc2c(c1)[nH]c1ccc(Cl)cc12", "note": "(configuration not stated) [Carprofen]", "values": [{"measurement": "percent Bodipy-positive cells", "setting": "[5]", "result": "8.26 ± 2.3", "unit": "%"}, {"measurement": "percent Bodipy-positive cells", "setting": "library stock concentration: 7.3 mM", "result": "16.5 ± 5.2", "unit": "%"}, {"measurement": "percent Bodipy-positive cells", "setting": "[1]", "result": "30.1% and 36.9%"}]}, {"compound": "CCCCc1cc2ccccc2c(OCCN(C)C)n1", "note": "[Dimethisoquin hydrochloride]", "values": [{"measurement": "percent Bodipy-positive cells", "result": "75.7 ± 4.2", "unit": "%"}]}, {"compound": "CO/N=C(\\C(=O)N[C@@H]1C(=O)N2C(C(=O)O)=C(CSc3nnnn3C)CS[C@H]12)c1csc(N)n1", "values": [{"measurement": "percent Bodipy-positive cells", "setting": "[1]", "result": "30.3 ± 6", "unit": "%"}]}, {"compound": "NCCNc1ncc(C(N)=O)c(Nc2cccc(C(F)(F)F)c2)n1", "note": "[Syk Inhibitor II]", "values": [{"measurement": "percent Bodipy-positive cells", "setting": "[5]", "result": "65.1 ± 1.1", "unit": "%"}]}, {"compound": "CC(C)N(CCC(=O)c1ccc2ccccc2c1)Cc1ccccc1.Cl", "values": [{"measurement": "percent Bodipy-positive cells", "setting": "[1]", "result": "90.6 ± 11", "unit": "%"}]}, {"compound": "CC(NC(=O)C(Cc1ccccc1)NC(=O)OCc1ccccc1)C(=O)CF", "note": "(configuration not stated)", "values": [{"measurement": "percent Bodipy-positive cells", "setting": "[5]", "result": "50 ± 15", "unit": "%"}, {"measurement": "percent Bodipy-positive cells", "setting": "[1]", "result": "67.3 ± 6.8", "unit": "%"}]}, {"compound": "Cc1cccc(C)c1NC(=O)C(C)N", "note": "(configuration not stated) [Tocainide hydrochloride]", "values": [{"measurement": "percent Bodipy-positive cells", "result": "10.7 ± 1", "unit": "%"}, {"measurement": "percent Bodipy-positive cells", "setting": "[1]", "result": "51.8 ± 19", "unit": "%"}]}, {"compound": "Cc1cccc(C)c1NC(=O)C(C)N", "note": "(configuration not stated)", "values": [{"measurement": "percent Bodipy-positive cells", "setting": "[1]", "result": "13.7 ± 2.5", "unit": "%"}]}, {"compound": "C=CCc1cccc(/C=N/NC(=O)CN2CCN(Cc3ccccc3)CC2)c1O", "values": [{"measurement": "percent Bodipy-positive cells", "setting": "[6]", "result": "10.1 ± 1.9", "unit": "%"}, {"measurement": "percent Bodipy-positive cells", "setting": "[5]", "result": "17.8 ± 2.8", "unit": "%"}, {"measurement": "percent Bodipy-positive cells", "setting": "[1]", "result": "66.6% and 49.6% and 47.4%"}]}]}
